Measured values taken from PubChem BioAssay AID1471 (National Center for Advancing Translational Sciences (NCATS), 2008).
Where “and” joins values, the source holds several entries; their conditions need not be identical. Identical values can stand only once. Among all 230,000 compounds or so, about 310 (0.13%) were called active. Inconclusive means that the source gave no clear call. Such entries were picked first, then a sample of the others. Calls follow the shape of the dose curve; as a rule, active = well fitted activation curve with a large enough effect; inconclusive = small, poorly fitted or top-dose-only effect; inactive = no such curve, though single readings can be large or run the other way. Potencies of inconclusive entries are doubtful fits and often do not repeat.

Test: qHTS Multiplex Assay to Identify Dual Action Probes in a Cell Model of Huntington: Cytoprotection (ATP); also: nearly all actives have a fitted effect of over 45% in size;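 as to cytoprotection (ATP increase): toxic huntingtin expression switched on by the ecdysone agonist tebufenozide; % of control where 0% means no effect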
Conditions: PC12 HTT-Q103 induced, ATP luminescence, 40 h; cytoprotection (ATP increase): at 56.4 µM (top of the series) unless noted
Method in brief: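 Quantitative HTS on tebufenozide-induced (100 nM) PC12 cells expressing HTTQ103 exon 1–GFP; compounds tested as a concentration series; survival measured via cellular ATP.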
Potency is read from the fitted curve at half-maximal effect.

SMILES	Potency	cytoprotection (ATP increase)
CCC1OC(=O)C(C)[C@@H](O[C@H]2C[C@@](C)(OC)C(O)C(C)O2)C(C)[C@@H](O[C@@H]2OC(C)CC(N(C)C)C2O)[C@@](C)(O)CC(C)C2NC(COCCOC)O[C@H](C2C)[C@@]1(C)O (stereo partly drawn)	inconclusive: 1.26 µM [activator, single point]	–
COc1cccc([C@@H]2Oc3ccc(Br)cc3C[C@H]2OC(=O)NS(=O)(=O)c2ccc(C)cc2)c1	inconclusive: 11.2 µM [activator, single point]	–
CC(=O)c1sc(N/N=C\c2cccc(Br)c2)nc1C	–	inactive: -0.692% [at 10 µM]
CC1Cc2ccccc2N1C(=O)CSc1nc2ccccc2s1 (stereo not drawn)	inconclusive: 1.26 µM [activator, single point]	–
CCCCn1c(-c2nonc2N)nc2ccccc21	–	inactive: -59.5% [at 10 µM]
CC(C)N=c1c([N+](=O)[O-])nn(C)n1O	inactive	–
CC1CCN(c2c(NCc3ccc(C(=O)N4CCc5ccccc54)cc3)c(=O)c2=O)CC1	inactive	–
Cc1nnc(N/N=C/c2cccc(OCc3ccc(Cl)c(Cl)c3)c2)n1N	–	inactive: -12.5% [at 10 µM]
CC(NC(=O)COC(=O)/C=C/c1ccc([N+](=O)[O-])cc1)c1ccccc1 (stereo not drawn)	inconclusive: 1.78 µM [activator, partial curve]	–
CNc1ccccc1C(=O)OCC(=O)c1ccccc1	inconclusive: 1.41 µM [activator, full curve]	–
Cc1ncc(/C=C2\C(=O)Nc3ccccc32)[nH]1	inconclusive: 5.62 µM [activator, single point]	–
CN(Cc1ccccc1)c1ccc(C(=O)O)cc1[N+](=O)[O-]	inconclusive: 1 µM [activator, single point]	–
CC(=O)c1cccc(NC(=O)N2CCC(c3nnc(SCC(N)=O)n3C)CC2)c1	–	inactive: 5.46% [at 10 µM]
O=C(CN1CCC(c2nc3ccccc3s2)CC1)NCc1cccs1	inactive	–
CC1Cc2ccccc2N1C(=O)CNc1cccc(S(=O)(=O)N2CCCC2)c1 (stereo not drawn)	inconclusive: 0.891 µM [activator, full curve, poor fit]	–
Nc1c2c(nc3ccccc13)CCCC2	inconclusive: 12.6 µM [activator, partial curve]	–
Cc1ccc(CN2CCN(Cc3ccccn3)CC2CCO)cc1 (stereo not drawn)	inconclusive: 5.62 µM [activator, single point]	–
O=C(Nc1ccccc1N1CCN(C(=O)c2ccccc2)CC1)c1cc2ccccc2o1	inactive	–
OC(COc1cccc2ccccc12)CN1CCN(c2ccc(Cl)cc2)CC1 (stereo not drawn)	–	inactive: -14.6% [at 10 µM]
CCOC(=O)Cn1c(CN2CCN(C(c3ccccc3)c3ccccc3)CC2)nc2c1c(=O)n(C)c(=O)n2C	–	inactive: 4.99% [at 10 µM]
CC(C)(C)c1ccc(-c2nn(CCC#N)cc2/C=N/O)cc1	inconclusive: 0.794 µM [activator, single point]	–
CCN1C/C(=C/c2ccc(N3CCOCC3)cc2)C(=O)/C(=C/c2ccc(N3CCOCC3)cc2)C1	–	inactive: -1.91% [at 10 µM]
O=C(CSc1nnc(NC(=O)c2c(F)cccc2F)s1)Nc1ccc(F)cc1	inconclusive: 2.24 µM [activator, partial curve]	–

SMILES	Potency	cytoprotection (ATP increase)
CC1(C)Cc2c(ccc3ccccc23)C(=O)N1	inactive	–
CCOc1ccc(C(=O)Nc2ccc3c(c2)OCCO3)cc1[N+](=O)[O-]	inconclusive: 0.282 µM [activator, partial curve, poor fit]	–
CCN(CC)C(=S)SSC(=S)N(CC)CC	inconclusive: 50.1 nM [activator, full curve] and inconclusive: 1.26 µM [activator, single point]	–
Cc1cc(C)c2nc(-c3ccccn3)cc(C(=O)Nc3ccc(S(=O)(=O)Nc4onc(C)c4C)cc3)c2c1	inactive	–
O=C/C(=C\Nc1ccc(C(=O)N2CCOCC2)cc1)c1nc2ccccc2o1	inconclusive: 1.26 µM [activator, single point]	–
CNC(=S)N(Cc1ccco1)Cc1cc2cc(OC)ccc2[nH]c1=O	inconclusive: 5.62 µM [activator, single point]	–
O=C(O)CCC(=O)c1ccc[nH]1	–	inactive: -0.89% [at 10 µM]
O=C(O)c1cccc(S(=O)(=O)Nc2ccccc2-c2ccccc2)c1	inconclusive: 0.447 µM [activator, partial curve]	–
CC(=O)Nc1ccc(Oc2sc(C(=O)c3ccccc3)c(N)c2C#N)cc1	inconclusive: 35.5 µM [activator, single point]	–
O=C(NC1CCCC1)C(=O)N(c1ccccc1F)C(C(=O)NCC1CCCO1)c1cccs1 (stereo not drawn)	inconclusive: 5.62 µM [activator, single point]	–
CCN(CCO)C(=O)CC(c1ccccc1)c1cc(Br)ccc1O (stereo not drawn)	inconclusive: 5.62 µM [activator, single point]	–
COCCN=c1scc(-c2ccco2)n1/N=C/c1ccc(O)c(O)c1O	inconclusive: 35.5 µM [activator, single point]	–
Cc1c(C(=O)NCc2ccccc2)c(-c2ccccc2)nn1-c1ccccc1	inconclusive: 0.1 µM [activator, full curve, poor fit]	–
[N-]=[N+]=CC(=O)COC(=O)c1ccccc1	–	inactive: -25.1% [at 10 µM]
CCC12CN3CC(CC)(CN(C1)C3c1c(O)ccc3ccccc13)C2=O (stereo not drawn)	inconclusive: 20 µM [activator, single point]	–
COc1ccc2c(c1)C(=O)[C@H](OC(=O)NCCc1ccc(OC)c(OC)c1)[C@@H](c1ccc(OC)c(Br)c1)O2	inconclusive: 11.2 µM [activator, single point]	–
CC1=C(C)CS(=O)N(S(=O)(=O)c2ccccc2)C1 (stereo not drawn)	inconclusive: 35.5 µM [activator, single point]	–
CN(C)c1nc(Oc2ccc(=O)n(-c3ccccc3)n2)nc(N2CCOCC2)n1	inactive	–
CCC1CCCCN1S(=O)(=O)c1ccc(S(=O)(=O)N(Cc2cccs2)C2CC2)cc1 (stereo not drawn)	–	inactive: 2.18% [at 10 µM]
O=c1[nH]c(SCc2ccc(Cl)cc2)nc2c1CCC2	inactive	–
COc1ccccc1-c1cc(C(=O)Nc2cc(C)nn2-c2ccccc2)no1	inconclusive: 3.55 µM [activator, single point]	–
Cc1ccc(S(=O)(=O)N2CCCC(C(=O)NC3=NCCS3)C2)cc1 (stereo not drawn)	–	inactive: 2.39% [at 10 µM]
CCN(C(C)=O)c1ccc(Oc2nc(OC)cc(OC)n2)cc1	inactive	–

SMILES	Potency	cytoprotection (ATP increase)
COCCNc1nc(C)nc2c1nc(-c1ccccc1)n2CC1CCN(C)CC1	inconclusive: 6.31 µM [activator, full curve]	–
CCCN1CN(Cc2ccccc2)CNC1=S	–	inactive: -16.5% [at 10 µM]
COc1ccccc1-c1ccc(SCc2cccc(C)c2)nn1	inconclusive: 1.41 µM [activator, partial curve]	–
Cc1nnc(SCC(=O)Nc2c(C)n(C)n(-c3ccccc3)c2=O)n1Cc1ccccc1	inactive	–
Cc1cccc(/C=N/n2c(-c3cc(-c4ccccc4)n[nH]3)n[nH]c2=S)c1	inconclusive: 0.1 µM [activator, full curve, poor fit]	–
O=C(CCC(=O)N1CCN(C(=O)c2ccco2)CC1)c1ccc(F)cc1	inconclusive: 0.562 µM [activator, partial curve, poor fit]	–
COc1cc(OC)cc(C(=O)NC2CCN(Cc3nnnn3Cc3ccc(F)cc3)CC2)c1	inconclusive: 1.12 µM [activator, single point]	–
Cc1nn(-c2ccccc2)c(N2CCCC2)c1/C=N/NC(=O)C1CC1	inactive	–
O=C1NN=C(c2ccccc2)CC1c1ccc(Cl)cc1Cl (stereo not drawn)	inconclusive: 5.01 µM [activator, partial curve, poor fit]	–
Nc1ccc(O)cc1	inconclusive: 35.5 µM [activator, single point]	–
Cn1c(NC(=O)Cc2cccs2)cc(=O)n(C)c1=O	inconclusive: 3.16 µM [activator, single point]	–
CN(CCO)c1ccc([N+](=O)[O-])cc1C(=O)O	–	inactive: -1.42% [at 10 µM]
Cc1ccc(S(=O)(=O)c2cccc(S(=O)(=O)N3CCCC3)c2)cc1S(=O)(=O)N1CCCC1	inactive	–
NCCSSCCN	inconclusive: 1 µM [activator, partial curve]	–
COc1ccc2c(c1)O[C@H](c1ccc3c(c1)OCO3)[C@@H](OC(=O)N[C@H]1CCCc3ccccc31)C2=O	inconclusive: 0.562 µM [activator, full curve, poor fit]	–
COc1ccc(-c2cc(=O)c3c(O)cc(O[C@H]4OC(COC5OC(C)C(O)C(O)[C@H]5O)C(O)C(O)C4O)cc3o2)cc1O (stereo partly drawn)	inconclusive: 0.1 µM [activator, full curve, poor fit]	–
O=C(CSc1nc2ccccc2s1)N1c2ccccc2Sc2ccc(Cl)cc21	inactive	–
Nc1nc(N)nc(-c2ccc(Cl)cc2)n1	inactive	–
COc1ccc2c(c1OC)C(=O)OC2	inconclusive: 5.62 µM [activator, single point]	–
CC(=O)NC(CC(=O)NC12CC3CC(CC(C3)C1)C2)c1ccccc1 (stereo not drawn)	inconclusive: 1.26 µM [activator, single point]	–
CCOC(=O)C1CCCN(C2CC(=O)N(c3cccc(C(F)(F)F)c3)C2=O)C1 (stereo not drawn)	–	inactive: 12.5% [at 10 µM]
